Measurements reported in publication PMC7193638.
Results are given in words; binding and its absence hold for the method and conditions named. Some entries that bind do so weakly or less than the wild type.

By UniProt entry, the sequences of proteins in these tests, tags left out.
UniProt O77059: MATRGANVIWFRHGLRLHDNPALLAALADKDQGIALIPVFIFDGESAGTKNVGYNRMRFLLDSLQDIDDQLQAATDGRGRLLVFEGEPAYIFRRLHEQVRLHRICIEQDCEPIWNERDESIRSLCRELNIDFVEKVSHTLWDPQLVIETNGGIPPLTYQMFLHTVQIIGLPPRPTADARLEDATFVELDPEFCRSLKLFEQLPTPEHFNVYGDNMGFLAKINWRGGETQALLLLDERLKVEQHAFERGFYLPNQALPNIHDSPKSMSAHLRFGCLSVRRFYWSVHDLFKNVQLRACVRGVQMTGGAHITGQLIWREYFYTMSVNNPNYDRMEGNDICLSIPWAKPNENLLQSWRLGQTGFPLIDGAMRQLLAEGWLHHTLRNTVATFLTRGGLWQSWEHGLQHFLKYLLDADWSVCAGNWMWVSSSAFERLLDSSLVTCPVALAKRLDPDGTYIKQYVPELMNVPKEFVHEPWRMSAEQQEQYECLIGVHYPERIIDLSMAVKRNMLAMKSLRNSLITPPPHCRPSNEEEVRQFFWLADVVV

Biological target: Cry of Drosophila melanogaster (DmCry), full length (Drosophila melanogaster) (UniProt O77059)
Test: two-hybrid; UAS-GAL4 drop test with cloned ORFs: mated diploid cells, 10 µl of 10^6 cells/ml per drop, on SD-leu-trp and SD-leu-trp-his-ade plates, 3 days at 30 °C; empty pGBKT7-SfiI and pGADT7-SfiI as negative controls

B1: IscA1 of Drosophila melanogaster (DmIscA1), full length (protein, UniProt Q8T3X9 1-130)
chain: MATRVVATATVRAVKGRKLIPTRAALTLTPAAVLRIKTLLQDKPDMVGLKVGVRQRGCNGLSYTLDYASQKDKLDEEVVQDGVKVFIDKKAQLSLLGTEMDFVESKLSSEFVFNNPNIKGTCGCGESFSM
In the case of B1, the binding is reported as “binds”.
